These are yes or no findings as the source states them, for the method shown. Some results given as binding are weak or reduced against the parent protein; the word gives no strength.
B1: PDL1 A05 Fab-phage (Fab, V domains shown)
VH: EVQLLESGGGLVQPGGSLRLSCAASGFTFSSYAMSWVRQAPGKGLEWVSSIWKQGIVTVYDSVKGRFTISRDNSKNTLYLQMNSLRAEDTAVYYCAKSSAGFDYWGQGTLVTV
VL: DIQMTQSPSSLSASVGDRVTITCRASQSISSYLNWYQQKPGKAPKLLIYYASTLQSGVPSRFSGSGSGTDFTLTISSLQPEDFATYYCQQDNGYPSTFGQGTKVEIKR
B2: PDL1 C05 Fab-phage (Fab, V domains shown)
VH: EVQLLESGGGLVQPGGSLRLSCAASGFTFSSYAMSWVRQAPGKGLEWVSSIWRNGIVTVYDSVKGRFTISRDNSKNTLYLQMNSLRAEDTAVYYCAKSSAGFDYWGQGTLVTVSS
VL: DIQMTQSPSSLSASVGDRVTITCRASQSISSYLNWYQQKPGKAPKLLIYYASTLQSGVPSRFSGSGSGTDFTLTISSLQPEDFATYYCQQDNGYPSTFGQGTKVEIKR
B3: PDL1 C10 Fab-phage (Fab, V domains shown)
VH: EVQLLESGGGLVQPGGSLRLSCAASGFTFSSYAMSWVRQAPGKGLEWVSDIWKQGMVTVYDSVKGRFTISRDNSKNTLYLQMNSLRAEDTAVYYCAKSSAGFDYWGQGTLVTVSS
VL: DIQMTQSPSSLSASVGDRVTITCRASQSISSYLNWYQQKPGKAPKLLIYYASTLQSGVPSRFSGSGSGTDFTLTISSLQPEDFATYYCQQDNGYPSTFGQGTKVEIKR
B4: PDL1 D08 Fab-phage (Fab, V domains shown)
VH: EVQLLESGGGLVQPGGSLRLSCAASGFTFSSYAMSWVRQAPGKGLEWVSSIWRQGLATAYDSVKGRFTISRDNSKNTLYLQMNSLRAEDTAVYYCAKSSAGFDYWGQGTLVTVSS
VL: DIQMTQSPSSLSASVGDRVTITCRASQSISSYLNWYQQKPGKAPKLLIYYASTLQSGVPSRFSGSGSGTDFTLTISSLQPEDFATYYCQQDNGYPSTFGQGTKVEIKR
B5: PDL1 G09 Fab-phage (Fab, V domains shown)
VH: EVQLLESGGGLVQPGGSLRLSCAASGFTFSSYAMSWVRQAPGKGLEWVSEIVATGILTSYDSVKGRFTISRDNSKNTLYLQMNSLRAEDTAVYYCAKSSAGFDYWGQGTLVTVSS
VL: DIQMTQSPSSLSASVGDRVTITCRASQSISSYLNWYQQKPGKAPKLLIYYASTLQSGVPSRFSGSGSGTDFTLTISSLQPEDFATYYCQQDNGYPSTFGQGTKVEIKR
B6: PDL1 G10 Fab-phage (Fab, V domains shown)
VH: EVQLLESGGGLVQPGGSLRLSCAASGFTFSSYAMSWVRQAPGKGLEWVSSIGRQGLITVYDSVKGRFTISRDNSKNTLYLQMNSLRAEDTAVYYCAKSSAGFDYWGQGTLVTVSS
VL: DIQMTQSPSSLSASVGDRVTITCRASQSISSYLNWYQQKPGKAPKLLIYYASTLQSGVPSRFSGSGSGTDFTLTISSLQPEDFATYYCQQDNGYPSTFGQGTKVEIKR
B7: PDL1 G12 Fab-phage (Fab, V domains shown)
VH: EVQLLESGGGLVQPGGSLRLSCAASGFTFSSYAMSWVRQAPGKGLEWVSSIWYQGLVTVYDSVKGRFTISRDNSKNTLYLQMNSLRAEDTAVYYCAKSSAGFDYWGQGTLVTVSS
VL: DIQMTQSPSSLSASVGDRVTITCRASQSISSYLNWYQQKPGKAPKLLIYYASTLQSGVPSRFSGSGSGTDFTLTISSLQPEDFATYYCQQDNGYPSTFGQGTKVEIKR
B8: PDL1 E11 Fab-phage (Fab, V domains shown)
VH: EVQLLESGGGLVQPGGSLRLSCAASGFTFSSYAMSWVRQAPGKGLEWVSDIWKQGFATADSVKGRFTISRDNSKNTLYLQMNSLRAEDTAVYYCAKSSAGFDYWGQGTLVTVSS
VL: DIQMTQSPSSLSASVGDRVTITCRASQSISSYLNWYQQKPGKAPKLLIYYASTLQSGVPSRFSGSGSGTDFTLTISSLQPEDFATYYCQQDNGYPSTFGQGTKVEIKR
B9: PDL1 D01 Fab-phage (Fab, V domains shown)
VH: EVQLLESGGGLVQPGGSLRLSCAASGFTFSSYAMSWVRQAPGKGLEWVSSIWKQGIVTVYDSVKGRFTISRDNSKNTLYLQMNSLRAEDTAVYYCAKSSAGFDYWGQGTLVTVSS
VL: DIQMTQSPSSLSASVGDRVTITCRASQSISSYLNWYQQKPGKAPKLLIYYASTLQSGVPSRFSGSGSGTDFTLTISSLQPEDFATYYCQQDNGYPSTFGQGTKVEIKR
B10: PDL1 H06 Fab-phage (Fab, V domains shown)
VH: EVQLLESGGGLVQPGGSLRLSCAASGFTFSSYAMSWVRQAPGKGLEWVSSIWRQGLATAYDSVKGRFTISRDNSKNTLYLQMNSLRAEDTAVYYCAKSSAGFDYWGQGTLVTVSS
VL: DIQMTQSPSSLSASVGDRVTITCRASQSISSYLNWYQQKPGKAPKLLIYYASTLQSGVPSRFSGSGSGTDFTLTISSLQPEDFATYYCQQDNGYPSTFGQGTKVEIKR
B11: anti-PDL1 antibody C5H9 (antibody, V domains shown)
VH: EVQLLESGGGLVQPGGSLRLSCAASGFTFSSYAMSWVRQAPGKGLEWVSSIWRNGIVTVYADSVKGRFTISRDNSKNTLYLQMNSLRAEDTAVYYCAKWSAAFDYWGQGTLVTVSS
VL: DIQMTQSPSSLSASVGDRVTITCRASQSISSYLNWYQQKPGKAPKLLIYYASTLQSGVPSRFSGSGSGTDFTLTISSLQPEDFATYYCQQDNGYPSTFGQGTKVEIKR
B12: anti-PDL1 antibody C5H9v2 (antibody, V domains shown)
VH: EVQLLESGGGLVQPGGSLRLSCAASGFTFSSYAMSWVRQAPGKGLEWVSSIWRNGIVTVYADSVKGRFTISRDNSKNTLYLQMNSLRAEDTAVYYCAKWSAAFDYWGQGTLVTVSS
VL: DIQMTQSPSSLSASVGDRVTITCRASQSISSYLNWYQQKPGKAPKLLIYAASSLQSGVPSRFSGSGSGTDFTLTISSLQPEDFATYYCQQDNGYPSTFGGGTKVEIKR

Chains of the proteins cited; added tags and fusions are not shown. Lines headed by an entry give the natural chain unless they say otherwise; changes in a name come on top. A line that says so, or that is headed by a name, gives the form on record, which may keep a tag or linker. Residues count along the entry.
UniProt Q9NZQ7, residues 19-239: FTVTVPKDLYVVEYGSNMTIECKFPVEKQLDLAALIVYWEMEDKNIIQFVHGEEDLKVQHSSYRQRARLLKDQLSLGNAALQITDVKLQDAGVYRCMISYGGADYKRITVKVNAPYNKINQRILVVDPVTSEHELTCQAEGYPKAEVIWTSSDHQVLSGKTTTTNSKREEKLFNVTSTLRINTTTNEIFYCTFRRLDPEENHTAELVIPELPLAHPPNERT
UniProt Q9EP73: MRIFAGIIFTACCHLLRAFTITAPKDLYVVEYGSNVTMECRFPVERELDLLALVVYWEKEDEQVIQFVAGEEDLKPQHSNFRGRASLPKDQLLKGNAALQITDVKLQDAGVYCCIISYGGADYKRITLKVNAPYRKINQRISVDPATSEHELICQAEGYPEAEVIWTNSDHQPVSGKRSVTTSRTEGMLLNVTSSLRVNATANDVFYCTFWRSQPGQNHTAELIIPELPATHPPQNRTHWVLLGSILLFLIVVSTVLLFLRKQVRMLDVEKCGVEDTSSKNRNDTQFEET
cynomolgus monkey (cyno) PDL1-Fc (Sino biological) (G7PSE7, form named): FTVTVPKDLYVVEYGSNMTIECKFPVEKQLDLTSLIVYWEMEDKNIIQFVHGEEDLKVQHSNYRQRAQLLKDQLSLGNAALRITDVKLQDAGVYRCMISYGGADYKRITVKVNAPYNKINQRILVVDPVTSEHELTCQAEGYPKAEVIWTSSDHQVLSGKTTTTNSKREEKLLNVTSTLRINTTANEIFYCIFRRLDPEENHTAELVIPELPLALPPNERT

How the values were obtained:
[1] = target: human PDL1-Fc (R & D Systems) (human) (UniProt Q9NZQ7); experiment: Fab-phage ELISA, antigen adsorbed
[2] = target: mouse PDL1 (R&D Systems) (mouse) (UniProt Q9EP73); experiment: Fab-phage ELISA, antigen adsorbed
[3] = target: cynomolgus monkey (cyno) PDL1-Fc (Sino biological) (cynomolgus monkey) (UniProt G7PSE7); experiment: ELISA, PDL1-Fc adsorbed, anti-human IgG (Fab specific)-HRP
[4] = target: cynomolgus monkey (cyno) PDL1-Fc (Sino biological) (cynomolgus monkey) (UniProt G7PSE7); experiment: ELISA (figure legend)

| Binder | binding [1] | further results |
| --- | --- | --- |
| B1 | binds |  |
| B2 | binds | binding [2]: binds |
| B3 | binds |  |
| B4 | binds |  |
| B5 | binds |  |
| B6 | binds |  |
| B7 | binds | binding [2]: binds |
| B8 | binds |  |
| B9 | binds |  |
| B10 | binds |  |
| B11 |  | binding [3]: binds; binding [4]: binds |
| B12 |  | binding [3]: binds; binding [4]: binds |

— patent publication US20190382493A1
